According to patent US6709864B1, “Adipogenic differentiation of human mesenchymal stem cells” (Osiris Therapeutics, Inc., priority 1996, dated 2004):
For at least one compound, name, drawing or mass did not settle the structure.

Test system: human mesenchymal stem cells
Test: Adipogenesis assay of hMSCs, lipid vacuoles observed by microscopy / Oil Red O
Type: cell-based
Details: 1 μM dexamethasone alone in normal hMSC media 48 h, then 14 days Adipogenic Maintenance Media
Protocol: Human MSCs are isolated from the red bone marrow of volunteer donors as described in U.S. Pat. No.5,486,359. The cells are grown until colonies are well established and at this point the cells are subcultured (1 to 3) or they can be taken to assay for in vitro adipogenesis. For the adipogenesis assay, hMSCs are subcultured into 35 mm tissue culture dishes at 100,000 cells per dish and fed with 2 milliliters normal hMSC Media (Dulbecco's Modified Eagle's Media (DMEM), 10% selected Fetal Bovine Serum (FBS) and antibiotic/antimycotic mixture (IX) (Life Technologies, Inc.)) and cells are maintained at 37° C., 5% CO2 and 90% humidity. The cells are refed with the fresh media every third day and are allowed to multiply and become confluent. The cells are maintained after reaching confluence by refeeding every third day and this time period of post confluence culturing enhances the adipogenic response in the next step (at least out to 14 days). The differentiation into adipocytes is initiated by changing the media to 2 ml of Adipogenic Induction Media (DMEM with 10% fetal bovine serum containing 10 μg/ml insulin (human recombinant, Boehringer Mannheim Corp.), 0.5 mM methyl isobutylxanthine (MIX)(Sigma Chemical Co.), 1 μM dexamethasone (Dex)(Sigma Chemical Co.)). […]

C[C@@H]1C[C@H]2[C@@H]3CCC4=CC(=O)C=C[C@]4(C)[C@@]3(F)[C@@H](O)C[C@]2(C)[C@@]1(O)C(=O)CO [dexamethasone]
lipid vacuoles (morphology): very few, if any, lipid vacuoles
